These are yes or no findings as the source states them, for the method shown. Binding seen in cells or lysates may run through a third protein. Some results given as binding are weak or reduced against the parent protein; the word gives no strength. Sequences can lack the tags named with a protein.
Target: GFP-tagged MybB (Dictyostelium discoideum) (UniProt O15816)
Assay: co-IP; lysates of Ax-2 cells coexpressing Flag-Sir2D and GFP-MybB (10 mmol/L PIPES pH 7.0, 100 mmol/L NaCl, 300 mmol/L sucrose, 3 mmol/L MgCl2, 1 mmol/L EGTA, 0.5% Triton X-100); 400 ug protein incubated 2 h at 4 °C with anti-GFP antibody, protein A-Sepharose; immunoblot with anti-Flag M2

The chains behind the UniProt entries cited, without tags or fusion partners.
UniProt O15816: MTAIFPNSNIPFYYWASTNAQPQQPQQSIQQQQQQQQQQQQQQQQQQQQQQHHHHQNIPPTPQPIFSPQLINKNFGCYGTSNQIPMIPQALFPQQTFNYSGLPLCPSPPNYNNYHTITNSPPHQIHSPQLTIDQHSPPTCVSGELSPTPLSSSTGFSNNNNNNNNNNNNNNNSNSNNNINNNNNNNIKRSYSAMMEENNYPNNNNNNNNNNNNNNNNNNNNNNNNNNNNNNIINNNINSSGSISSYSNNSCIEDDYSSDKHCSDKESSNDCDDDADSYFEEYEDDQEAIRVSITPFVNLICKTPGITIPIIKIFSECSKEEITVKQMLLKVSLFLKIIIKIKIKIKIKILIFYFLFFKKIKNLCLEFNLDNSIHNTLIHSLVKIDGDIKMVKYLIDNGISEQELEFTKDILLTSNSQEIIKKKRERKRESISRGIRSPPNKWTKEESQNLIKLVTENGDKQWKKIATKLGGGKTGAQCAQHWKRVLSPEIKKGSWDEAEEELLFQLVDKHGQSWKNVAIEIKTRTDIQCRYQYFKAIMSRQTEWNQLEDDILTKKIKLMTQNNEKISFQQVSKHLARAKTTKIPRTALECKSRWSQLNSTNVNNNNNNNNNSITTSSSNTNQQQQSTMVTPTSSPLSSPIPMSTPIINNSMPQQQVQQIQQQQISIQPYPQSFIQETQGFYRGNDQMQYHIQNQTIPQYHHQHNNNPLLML

- binding: binds
B1: Flag-tagged Sir2D (protein, UniProt Q54GV7 1-542)
chain: MNKRSLENNELNEIQNNQNKNNNNKINKEIPSDNTPLKKLKSINSLEQLQEVDEDEDLDVEIDTKLINKLDKKGRKYEFVGEGYSDEEQISDDYEDDESSEYEYGYENEDELLDDEDHLDNINEIKKIQKKLVNTETSTSITNTSSTTTTSTSTTTTTTTKTQINETILLDILNNNKDEVDDEIQRIGNNVGNSKEEEGEEEEENIELVARSFIYKHIQEKKSLGIDPIEFTKDIGFKLELEKDDDAWEIITAFLTRKKVAVNLFLNYLKYNTLARPYRKKIATLDLSTFEKVCQLFESSKNIVIITGAGVSVSCGIPDFRSKGGVYETIEKKYNLPRPESLFDIHYLRANPLPFFEFAKEIFPGNHKPSPTHSFIKLLDEKGKLLRNYTQNIDTLEHVAGIDREKLVNCHGSFSTATCITCKLTVDGTTIRDTIMKMEIPLCQQCNDGQSFMKPDIVFFGENLPDRFDQCVLKDVKDIDLLIVMGSSLQVQPVSLLPDIVDKQIPQILINRELVAQPHEFDYVYLGDCDQFVQDLLNKVKW

Source: publication PMC6475656
